Taken from: PubChem BioAssay AID504774 (Drosophila RNAi Screening Center, 2011)
The deposit covers about 23,000 reagents; shown is an unselected part of those that have a named target and a result. 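Values are quantile-normalised luminescence on an arbitrary scale; higher means more cells surviving MMS.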 The numbers tell different reagents against one gene apart. Names joined by + are all predicted targets of the reagent.

Purpose: 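Genes required for cells to withstand methyl methanesulphonate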 (primary screen)
Cell system: Drosophila Kc167 cells
Knock-down reagent: long dsRNA against Drosophila genes, about 0.25 µg dsRNA per well
Duration: about 6 days: 3 days knock-down, then 3 days with or without MMS
Conditions: methyl methanesulphonate 0.004% (w/v) for 3 days after knock-down
Detection: 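ATP-dependent luminescence as a measure of live cells in MMS-exposed wells, quantile normalised within each plate, with replicate values also given as a mean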
Direction: mean viability with MMS and viability with MMS: higher = more surviving cells after MMS

| gene | reagent | mean viability with MMS | viability with MMS, replicate 1 | viability with MMS, replicate 2 |
| --- | --- | --- | --- | --- |
| CG11437 (GeneID 40470) | 1 | 3.39e6 | 3.81e6 | 3.80e6 |
| CG33475 (GeneID 2768724) | 1 | 3.63e6 | 4.12e6 | 4.05e6 |
| CG15382 (GeneID 33391) | 1 | 3.38e6 | 3.84e6 | 3.75e6 |
| rux (GeneID 31535) | 1 | 3.79e6 | 4.10e6 | 4.55e6 |
| CG3009 (GeneID 31402) | 1 | 3.56e6 | 4.05e6 | 4.08e6 |
| CG33093 (GeneID 42654) | 1 | 1.91e6 | 4.11e6 | 4.04e6 |
| Tsp42Eb + CG30160 | 1 | 3.56e6 | 3.97e6 | 4.10e6 |
| Tsp42Eb + CG30160 | 2 | 3.61e6 | 4.05e6 | 4.09e6 |
| CG18568 (GeneID 36549) | 1 | 3.57e6 | 4.18e6 | 3.92e6 |
| CG14471 (retired record) (GeneID 35525) | 1 | 3.43e6 | 3.92e6 | 3.93e6 |
| CG33340 (GeneID 2768682) | 1 | 3.45e6 | 3.88e6 | 3.92e6 |
| CG17378 (GeneID 33951) | 1 | 3.59e6 | 4.07e6 | 4.05e6 |
| CG6118 (GeneID 41884) | 1 | 2.77e6 | 3.52e6 | 3.53e6 |
| CG6118 (GeneID 41884) | 2 | 3.57e6 | 4.04e6 | 4.08e6 |
| Arl6IP1 (GeneID 42027) | 1 | 3.69e6 | 4.28e6 | 4.10e6 |
| CG9162 (retired record) (GeneID 33860) | 1 | 3.76e6 | 4.35e6 | 4.23e6 |
| Tcs4 (GeneID 32982) | 1 | 3.60e6 | 4.05e6 | 4.13e6 |
| Jra (GeneID 36057) | 1 | 3.52e6 | 4.11e6 | 3.87e6 |
| CG10638 (GeneID 39424) | 1 | 3.21e6 | 3.66e6 | 3.53e6 |
| CG9948 (GeneID 38757) | 1 | 3.60e6 | 4.08e6 | 4.10e6 |
| CG32344 (GeneID 326208) | 1 | 3.50e6 | 4.05e6 | 3.87e6 |
| CG12279 (GeneID 41570) | 1 | 3.41e6 | 3.88e6 | 3.90e6 |
| CG31910 + snoRNA:Me28S-G2743 (retired record) | 1 | 3.37e6 | 3.89e6 | 3.81e6 |
| ATP7 (GeneID 32142) | 1 | 3.58e6 | 4.10e6 | 3.99e6 |
| tefu (GeneID 41839) | 1 | 3.42e6 | 3.98e6 | 3.76e6 |
| PGRP-LD + Cralbp + Pmi | 1 | 3.47e6 | 3.94e6 | 3.94e6 |
| Fbp2 (GeneID 34259) | 1 | 3.79e6 | 4.12e6 | 4.50e6 |
| CG13038 (GeneID 50268) | 1 | 3.61e6 | 4.19e6 | 3.98e6 |
| Abcd1 (GeneID 43772) | 1 | 3.57e6 | 4.03e6 | 4.06e6 |
| Jhbp11 (GeneID 43263) | 1 | 3.49e6 | 3.96e6 | 3.94e6 |
| CG13842 (GeneID 42685) | 1 | 3.49e6 | 3.90e6 | 3.99e6 |
| Naa60 (GeneID 39142) | 1 | 3.74e6 | 4.22e6 | 4.17e6 |
| CG42296 (GeneID 53544) | 1 | 3.39e6 | 3.82e6 | 3.80e6 |
| CG34230 (GeneID 5740558) | 1 | 3.56e6 | 4.05e6 | 3.99e6 |
| CG31633 (GeneID 33931) | 1 | 3.56e6 | 3.97e6 | 4.10e6 |
| CG15465 (GeneID 31434) | 1 | 3.38e6 | 3.67e6 | 3.99e6 |
| CG14113 (GeneID 50287) | 1 | 3.59e6 | 3.94e6 | 4.18e6 |
| CG1647 (GeneID 43401) | 1 | 3.41e6 | 3.87e6 | 3.87e6 |
| RpL32 (GeneID 43573) | 1 | 2.90e6 | 3.52e6 | 3.52e6 |
| moody (GeneID 31168) | 1 | 3.54e6 | 4.05e6 | 3.97e6 |

Copied from the list.
Result of moody (GeneID 31168) under “viability with MMS, replicate 1”: 4.05e6
Value of CG9948 (GeneID 38757) in “viability with MMS, replicate 2”: 4.10e6
For “mean viability with MMS”, CG1647 (GeneID 43401) has 3.41e6
CG33093 (GeneID 42654), mean viability with MMS: 1.91e6
Under “viability with MMS, replicate 1”, PGRP-LD + Cralbp + Pmi reads 3.94e6
Entry of Tsp42Eb + CG30160 #2 under “viability with MMS, replicate 1”: 4.05e6

The list goes on.
| gene | reagent | mean viability with MMS | viability with MMS, replicate 1 | viability with MMS, replicate 2 |
| --- | --- | --- | --- | --- |
| EcR (GeneID 35540) | 1 | 3.61e6 | 4.17e6 | 4.02e6 |
| EcR (GeneID 35540) | 2 | 3.51e6 | 4.14e6 | 3.81e6 |
| l(3)neo38 (GeneID 41423) | 1 | 3.48e6 | 3.99e6 | 4.05e6 |
| l(3)neo38 (GeneID 41423) | 2 | 3.55e6 | 4.04e6 | 4.02e6 |
| l(3)neo38 (GeneID 41423) | 3 | 3.42e6 | 3.87e6 | 3.91e6 |
| CG12551 (retired record) (GeneID 35518) | 1 | 3.68e6 | 4.27e6 | 4.06e6 |
| CG12551 (retired record) (GeneID 35518) | 2 | 3.63e6 | 4.19e6 | 4.05e6 |
| cdi (GeneID 42289) | 1 | 3.55e6 | 4.07e6 | 3.99e6 |
| PPO1 (GeneID 37044) | 1 | 3.62e6 | 4.02e6 | 4.20e6 |
| endos (GeneID 39554) | 1 | 3.43e6 | 3.92e6 | 3.83e6 |
| CG14763 (GeneID 35757) | 1 | 3.54e6 | 4.06e6 | 3.97e6 |
| Vm26Aa (GeneID 33829) | 1 | 3.60e6 | 4.08e6 | 4.06e6 |
| Fer1 (GeneID 2768661) | 1 | 3.59e6 | 3.97e6 | 4.18e6 |
| Fer1 (GeneID 2768661) | 2 | 3.64e6 | 4.07e6 | 4.17e6 |
| CG2915 (GeneID 35754) | 1 | 3.65e6 | 4.08e6 | 4.20e6 |
| CG13300 (GeneID 38730) | 1 | 3.22e6 | 3.59e6 | 3.59e6 |
| CG10163 (GeneID 38728) | 1 | 3.50e6 | 4.01e6 | 3.93e6 |
| TotX (GeneID 117460) | 1 | 3.64e6 | 4.06e6 | 4.13e6 |
| CG14491 (GeneID 37046) | 1 | 3.61e6 | 4.11e6 | 4.06e6 |
| c(3)G (GeneID 47765) | 1 | 3.45e6 | 3.94e6 | 3.90e6 |
| Hen1 (GeneID 36301) | 1 | 3.74e6 | 4.18e6 | 4.29e6 |
| Hen1 (GeneID 36301) | 2 | 3.65e6 | 3.96e6 | 4.10e6 |
| ara (GeneID 39439) | 1 | 2.93e6 | 3.45e6 | 3.47e6 |
| ara (GeneID 39439) | 2 | 3.53e6 | 4.03e6 | 4.01e6 |
| CR18275 + CG13373 | 1 | 3.56e6 | 3.82e6 | 4.27e6 |
| CG12885 (GeneID 43308) | 1 | 3.49e6 | 3.94e6 | 3.95e6 |
| z (GeneID 31230) | 1 | 3.03e6 | 3.66e6 | 3.67e6 |
| z (GeneID 31230) | 2 | 3.41e6 | 4.01e6 | 3.75e6 |
| Tim17a1 (GeneID 41500) | 1 | 3.65e6 | 4.08e6 | 4.11e6 |
| CG5793 (GeneID 42505) | 1 | 3.46e6 | 3.88e6 | 3.98e6 |
| Pgls (GeneID 32013) | 1 | 3.57e6 | 4.02e6 | 4.07e6 |
| Pp1-87B (GeneID 49260) | 1 | 3.08e6 | 3.60e6 | 3.65e6 |
| Pp1-87B (GeneID 49260) | 2 | 3.56e6 | 4.02e6 | 4.08e6 |
| Fsn (GeneID 36460) | 1 | 3.62e6 | 4.15e6 | 4.07e6 |
| stol (GeneID 34921) | 1 | 3.48e6 | 3.93e6 | 3.98e6 |
| CG13054 (GeneID 39780) | 1 | 3.74e6 | 4.24e6 | 4.16e6 |
| CSN6 (GeneID 42661) | 1 | 3.36e6 | 3.79e6 | 3.74e6 |
| CG14314 (GeneID 42179) | 1 | 3.65e6 | 4.14e6 | 4.14e6 |
| Abcd3 (GeneID 32992) | 1 | 3.44e6 | 3.89e6 | 3.92e6 |
| gprs (GeneID 36862) | 1 | 3.56e6 | 4.01e6 | 4.07e6 |
| CG11562 (GeneID 33200) | 1 | 3.50e6 | 3.97e6 | 3.96e6 |
| PGRP-SC1a (GeneID 35859) | 1 | 3.49e6 | 3.96e6 | 3.97e6 |
| CG4927 (GeneID 36852) | 1 | 3.57e6 | 4.11e6 | 3.99e6 |
| Cpr47Ef (GeneID 36194) | 1 | 3.49e6 | 3.97e6 | 3.74e6 |
| Cpr47Ef (GeneID 36194) | 2 | 3.42e6 | 3.95e6 | 3.88e6 |
| BBS1 (GeneID 38780) | 1 | 1.84e6 | 3.91e6 | – |
| NimC2 (GeneID 34818) | 1 | 3.62e6 | 4.04e6 | 4.15e6 |
